Experimental data reported in publication PMC4324837 (Antiviral research, 2014).

Test system: CMV AD169IE2-YFP
Test: in vitro
Format: cell-based, Human cytomegalovirus
Settings: MRC5 cells

In the case of `COc1cc2c(c(OC)c1OC)-c1ccc(OC)c(=O)cc1[C@@H](NC(C)=O)CC2` [Colchicine], the “Selective Ratio (CC50/EC50)” value was greater than 28 and the selectivity ratio (human, Selective Ratio (CC50/EC50)) was less than 30.
